These are yes or no findings as the source states them, for the method shown. Binding seen in cells or lysates may run through a third protein. Some entries that bind do so weakly or less than the wild type. Where a sequence is shown, tags or fusion partners need not be part of it.
T1: GST-tagged MUT-16 fragment (584–724), seven Arg mutated to Lys (R−K) (C. elegans) (UniProt O62011)
T1 sequence: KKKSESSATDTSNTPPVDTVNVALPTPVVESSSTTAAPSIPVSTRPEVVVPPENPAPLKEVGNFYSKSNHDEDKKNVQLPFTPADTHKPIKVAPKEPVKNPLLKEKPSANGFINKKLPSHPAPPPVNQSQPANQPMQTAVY

T2: GST-tagged MUT-16 fragment (584–724), WT (C. elegans) (UniProt O62011)
T2 sequence: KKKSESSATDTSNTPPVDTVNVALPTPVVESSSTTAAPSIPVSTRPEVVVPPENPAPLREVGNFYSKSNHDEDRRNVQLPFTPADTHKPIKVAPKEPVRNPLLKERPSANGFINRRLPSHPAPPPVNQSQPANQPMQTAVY

T3: MBP-tagged MUT-8 N-terminal fragment (1–235) (C. elegans) (UniProt Q19672)
T3 sequence: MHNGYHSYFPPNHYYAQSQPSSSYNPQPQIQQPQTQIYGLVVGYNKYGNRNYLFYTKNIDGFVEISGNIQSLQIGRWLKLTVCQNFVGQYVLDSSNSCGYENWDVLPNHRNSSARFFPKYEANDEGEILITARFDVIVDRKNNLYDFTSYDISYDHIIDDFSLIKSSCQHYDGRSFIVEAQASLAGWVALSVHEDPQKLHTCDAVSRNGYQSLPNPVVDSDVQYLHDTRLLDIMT


How the values were obtained:
[1] = biological target: T1, GST-tagged MUT-16 fragment (584–724), seven Arg mutated to Lys (R−K) (C. elegans); assay: pull-down; GST pull-down: supernatant of E. coli co-expressing MBP-MUT-8 (1–235) and GST-MUT-16 (584–724) on glutathione resin, 1–2 h at 4°C; lysis buffer 50 mM NaH2PO4, 20 mM Tris-HCl, 250 mM NaCl, 10 mM imidazole, 10% glycerol, 0.05% IGEPAL, 5 mM 2-mercaptoethanol, pH 7.5; eluted with 20 mM reduced glutathione; SDS-PAGE, Coomassie
[2] = biological target: T2, GST-tagged MUT-16 fragment (584–724), WT (C. elegans); assay: as above
[3] = biological target: T3, MBP-tagged MUT-8 N-terminal fragment (1–235) (C. elegans); assay: pull-down; MBP pull-down: supernatant of E. coli co-expressing MBP-MUT-8 (1–235) and GST-MUT-16 (584–724) on amylose resin, 1–2 h at 4°C; lysis buffer 50 mM NaH2PO4, 20 mM Tris-HCl, 250 mM NaCl, 10 mM imidazole, 10% glycerol, 0.05% IGEPAL, 5 mM 2-mercaptoethanol, pH 7.5; eluted with 10 mM maltose; SDS-PAGE, Coomassie

| binding [1] | binding [2] | binding [3] | Binder |
| --- | --- | --- | --- |
| binds | binds | – | MBP-tagged MUT-8 N-terminal fragment (1–235) (domain or fragment, UniProt Q19672 1-235) MHNGYHSYFPPNHYYAQSQPSSSYNPQPQIQQPQTQIYGLVVGYNKYGNRNYLFYTKNIDGFVEISGNIQSLQIGRWLKLTVCQNFVGQYVLDSSNSCGYENWDVLPNHRNSSARFFPKYEANDEGEILITARFDVIVDRKNNLYDFTSYDISYDHIIDDFSLIKSSCQHYDGRSFIVEAQASLAGWVALSVHEDPQKLHTCDAVSRNGYQSLPNPVVDSDVQYLHDTRLLDIMT |
| – | – | binds | GST-tagged MUT-16 fragment (584–724), WT (domain or fragment, UniProt O62011 584-724) KKKSESSATDTSNTPPVDTVNVALPTPVVESSSTTAAPSIPVSTRPEVVVPPENPAPLREVGNFYSKSNHDEDRRNVQLPFTPADTHKPIKVAPKEPVRNPLLKERPSANGFINRRLPSHPAPPPVNQSQPANQPMQTAVY |
| – | – | binds | GST-tagged MUT-16 fragment (584–724), seven Arg mutated to Lys (R−K) (domain or fragment, UniProt O62011 584-724) KKKSESSATDTSNTPPVDTVNVALPTPVVESSSTTAAPSIPVSTRPEVVVPPENPAPLKEVGNFYSKSNHDEDKKNVQLPFTPADTHKPIKVAPKEPVKNPLLKEKPSANGFINKKLPSHPAPPPVNQSQPANQPMQTAVY |

Source: paper PMC12709416
